Here are results for 2 molecules from article PMC3404119.

Amino acid sequences for entries named in this document (tags omitted).
UniProt Q90477: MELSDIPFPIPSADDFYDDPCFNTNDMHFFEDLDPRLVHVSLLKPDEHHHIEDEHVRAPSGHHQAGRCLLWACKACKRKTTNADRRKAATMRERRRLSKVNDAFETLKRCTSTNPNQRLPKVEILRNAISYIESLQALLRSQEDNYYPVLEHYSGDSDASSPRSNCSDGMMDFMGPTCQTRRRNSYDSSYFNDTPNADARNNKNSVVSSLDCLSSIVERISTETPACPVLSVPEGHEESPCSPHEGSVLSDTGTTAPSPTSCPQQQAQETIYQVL

These are yes or no findings as the source states them, for the method shown. For some of these results: In cells and extracts the contact can be indirect. Some binding calls cover weakened binding; strength is not graded here.

In assay [1] the target is T1, Hes6 (zebrafish) (UniProt Q6P0J1).
T1 sequence: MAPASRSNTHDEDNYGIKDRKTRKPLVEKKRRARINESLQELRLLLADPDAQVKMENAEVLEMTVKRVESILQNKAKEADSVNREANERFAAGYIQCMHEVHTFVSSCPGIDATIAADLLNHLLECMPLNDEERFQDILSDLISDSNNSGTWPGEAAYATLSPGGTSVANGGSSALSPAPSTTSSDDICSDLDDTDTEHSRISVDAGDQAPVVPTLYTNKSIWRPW
The assay can be described thus: co-IP; GFP-tagged Her1, Her7 or Hes6 co-expressed with mCherry-tagged proteins in an in vitro transcription-translation system; immunoprecipitation with a GFP antibody, immunoblot for mCherry. On the technique in general: In western blotting, separated proteins are transferred to a membrane and probed.

For assay [2], the target named is T1, Hes6 (zebrafish). The assay can be described thus: MITOMI (mechanically induced trapping of molecular interactions); GFP-tagged Her protein from wheat germ extract immobilised on the microfluidic chip surface with anti-GFP antibody and washed with PBS; mCherry-tagged protein expressed on chip in wheat germ extract with 250 nM Cy5-labelled DNA oligomer; 3 h at room temperature; slope of free against bound mCherry signal as relative affinity.

Consider “MyoD (myogenic differentiation 1) (from UniProt Q90477 1-275)”, for which the binding result with Hes6 (zebrafish) [1] and with Hes6 (zebrafish) [2] was “binds” in each case.

B1: Hes6 (protein, UniProt Q6P0J1 1-226)
chain: T1 sequence
Turning to B1, the binding result with Hes6 (zebrafish) [1] and with Hes6 (zebrafish) [2] was “binds” each time.
